Laboratory results: PubChem BioAssay AID720505 (Drosophila RNAi Screening Center, 2013)

Assay: 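Knock-downs that reduce calcium influx once internal stores are emptied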 (primary screen)
Cells: Drosophila S2R+ cells
Reagents: long dsRNA against Drosophila genes
Treatment: thapsigargin (2 µM) in calcium-free buffer to empty internal stores, then 2 mM calcium added back
Measurement: 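Fluo-4 signal in 384-well plates read on a FLIPR after thapsigargin (2 µM, calcium-free) store depletion and 2 mM calcium add-back; unnormalised mean endpoint per well; screen run twice, selected wells retested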
Scale: calcium signal: higher = more calcium entry after store depletion
Hit rule: 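Knock-downs counted as hits when calcium entry dropped relative to STIM1 positive and Rho1 negative controls present on each plate; roughly 1500 genes called, with reductions of differing size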
Calls: active = called as lowering calcium entry; inactive = not called
The screen tested about 20,000 reagents; shown is an unselected part of those with a known target gene and a result. In the full data, about 2,100 (10%) were called active. 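Raw plate signals without normalisation; calls rest on control-based scores that were not deposited; replicate 2 separates called from uncalled poorly.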 Entries without a mark were called inactive. The record does not give: the amount of reagent, the time to read-out.

Arpc5 (Actin-related protein 2/3 complex, subunit 5) [DRSC00730] → calcium signal, replicate 1: 146; calcium signal, replicate 2: 118
CG14969 [DRSC08428] → calcium signal, replicate 1: 91.7; calcium signal, replicate 2: 93
Met (Methoprene-tolerant) [DRSC20284] → calcium signal, replicate 1: 83.8; calcium signal, replicate 2: 106
Ugt36D1 (UDP-glycosyltransferase family 36 member D1) [DRSC02600] → calcium signal, replicate 1: 96.1; calcium signal, replicate 2: 118
CG33235 [DRSC19641] → calcium signal, replicate 1: 83; calcium signal, replicate 2: 104
CG3306 [DRSC10357] → calcium signal, replicate 1: 56.6 (active); calcium signal, replicate 2: 79
Pep (Protein on ecdysone puffs) [DRSC11252] → calcium signal, replicate 1: 103; calcium signal, replicate 2: 98
Dh31-R (Diuretic hormone 31 Receptor) [DRSC06647] → calcium signal, replicate 1: 105; calcium signal, replicate 2: 140
Dh31-R (Diuretic hormone 31 Receptor) [DRSC06669] → calcium signal, replicate 1: 117; calcium signal, replicate 2: 210
CG5535 [DRSC10514] → calcium signal, replicate 1: 133; calcium signal, replicate 2: 88.5
Piezo [DRSC03092] → calcium signal, replicate 1: 136; calcium signal, replicate 2: 256
Piezo [DRSC03391] → calcium signal, replicate 1: 152; calcium signal, replicate 2: 148
